Assay results reported in PMC12098889, “Structural insight into PIF6-mediated red light signal transduction of plant phytochrome B” (Cell Discovery, 2025).
These are yes or no findings as the source states them, for the method shown. For part of these data: In cells and extracts the contact can be indirect. Some binding calls cover weakened binding; strength is not graded here.

Amino acid sequences for entries named in this document (tags omitted). A change or cut given only in a name is not applied to a line headed by its entry. Chains listed by the source or under a name are the forms on record and can include a tag or linker. Residues count along the entry.
PIF6αΔC fused to nLUC or cLUC (PIF6αΔC-nLUC and cLUC-PIF6αΔC) (Q8L5W7, residues 1-247): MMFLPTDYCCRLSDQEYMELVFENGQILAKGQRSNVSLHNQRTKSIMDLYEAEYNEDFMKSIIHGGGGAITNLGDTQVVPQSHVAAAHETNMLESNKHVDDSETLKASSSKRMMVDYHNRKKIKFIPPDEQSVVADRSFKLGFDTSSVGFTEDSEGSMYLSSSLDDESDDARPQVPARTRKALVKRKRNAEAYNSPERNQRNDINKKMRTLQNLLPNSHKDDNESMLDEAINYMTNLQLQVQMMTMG
PIF6N (1‒64) (Q8L5W7, residues 1-64): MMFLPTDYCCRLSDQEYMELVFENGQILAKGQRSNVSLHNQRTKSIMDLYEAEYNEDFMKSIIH

Key:
[1] = target: PIF6αΔC fused to nLUC or cLUC (PIF6αΔC-nLUC and cLUC-PIF6αΔC) (Arabidopsis) (UniProt Q8L5W7); assay: split reporter; luciferase complementation imaging (LCI) in Nicotiana benthamiana leaves; PIF6αΔC-nLUC with cLUC-PIF6αΔC, with or without co-transfected phyB forms; far-red or red light for 5 min before imaging for the phyB combinations
[2] = target: PIF6N (1‒64) (Arabidopsis) (UniProt Q8L5W7); assay: pull-down; StrepII-tagged PIF6N (1-64) and its mutants used to pull down Flag-tagged phyBN (Pfr) and its site-directed mutants; SDS-PAGE with Coomassie and zinc-induced fluorescence; both purified
[3] = target: PIF6N (1‒64) (Arabidopsis) (UniProt Q8L5W7); assay: pull-down; StrepII-tagged PIF6N (1-64) used to pull down Flag-tagged phyBN^Y276H and its site-directed mutants; light condition not stated; both purified

binding [1]	binding [3]	Molecule	other results
binds		PIF6αΔC fused to nLUC or cLUC (PIF6αΔC-nLUC and cLUC-PIF6αΔC) (from UniProt Q8L5W7 1-247) (domain or fragment)	
		phyBN Q109A (from UniProt P14713 1-908) (domain or fragment)	binding [2]: binds weakly
binds		phyB^Y276H expressed in Nicotiana benthamiana (pPlink) (from UniProt P14713 1-1172) (receptor)	
binds		phyB expressed in Nicotiana benthamiana (pPlink) (from UniProt P14713 1-1172) (receptor)	
	binds weakly	phyBN^Y276H Q109A (from UniProt P14713 1-908) (domain or fragment)	
	binds	phyBN^Y276H (1‒908) (domain or fragment, Arabidopsis, UniProt P14713 1-908, looked up, PΦB chromophore covalently bound, Arabidopsis phytochrome B, residues 1-908, with Y276H; also called HKRD-truncated phyBN^Y276H; truncated phyBN^Y276H (M1‒S908); source: E. coli BL21(DE3), co-expressed with HO1 and HY2, purified; not shown: 3× Flag, N-terminal, kept) MVSGVGGSGGGRGGGRGGEEEPSSSHTPNNRRGGEQAQSSGTKSLRPRSNTESMSKAIQQYTVDARLHAVFEQSGESGKSFDYSQSLKTTTYGSSVPEQQITAYLSRIQRGGYIQPFGCMIAVDESSFRIIGYSENAREMLGIMPQSVPTLEKPEILAMGTDVRSLFTSSSSILLERAFVAREITLLNPVWIHSKNTGKPFYAILHRIDVGVVIDLEPARTEDPALSIAGAVQSQKLAVRAISQLQALPGGDIKLLCDTVVESVRDLTGYDRVMVHKFHEDEHGEVVAESKRDDLEPYIGLHYPATDIPQASRFLFKQNRVRMIVDCNATPVLVVQDDRLTQSMCLVGSTLRAPHGCHSQYMANMGSIASLAMAVIINGNEDDGSNVASGRSSMRLWGLVVCHHTSSRCIPFPLRYACEFLMQAFGLQLNMELQLALQMSEKRVLRTQTLLCDMLLRDSPAGIVTQSPSIMDLVKCDGAAFLYHGKYYPLGVAPSEVQIKDVVEWLLANHADSTGLSTDSLGDAGYPGAAALGDAVCGMAVAYITKRDFLFWFRSHTAKEIKWGGAKHHPEDKDDGQRMHPRSSFQAFLEVVKSRSQPWETAEMDAIHSLQLILRDSFKESEAAMNSKVVDGVVQPCRDMAGEQGIDELGAVAREMVRLIETATVPIFAVDAGGCINGWNAKIAELTGLSVEEAMGKSLVSDLIYKENEATVNKLLSRALRGDEEKNVEVKLKTFSPELQGKAVFVVVNACSSKDYLNNIVGVCFVGQDVTSQKIVMDKFINIQGDYKAIVHSPNPLIPPIFAADENTCCLEWNMAMEKLTGWSRSEVIGKMIVGEVFGSCCMLKGPDALTKFMIVLHNAIGGQDTDKFPFPFFDRNGKFVQALLTANKRVSLEGKVIGAFCFLQIPS	
